In paper doi:10.1101/2023.07.10.548302:
Results are given in words; binding and its absence hold for the method and conditions named. In cells and extracts the contact can be indirect. Binding calls can cover weak binding; strength is not graded here. Sequences can lack the tags named with a protein.

T1: Vap33-V5 (Drosophila) (UniProt Q9W4N8)
T1 sequence: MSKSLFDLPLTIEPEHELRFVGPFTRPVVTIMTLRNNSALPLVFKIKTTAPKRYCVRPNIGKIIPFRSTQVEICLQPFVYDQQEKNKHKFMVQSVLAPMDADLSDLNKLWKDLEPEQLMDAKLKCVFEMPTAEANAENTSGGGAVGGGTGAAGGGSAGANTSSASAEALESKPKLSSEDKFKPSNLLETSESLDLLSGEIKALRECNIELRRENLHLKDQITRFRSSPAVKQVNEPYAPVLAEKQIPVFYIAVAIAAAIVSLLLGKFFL

B1: Vap33-V5 (protein, UniProt Q9W4N8 1-269)
chain: MSKSLFDLPLTIEPEHELRFVGPFTRPVVTIMTLRNNSALPLVFKIKTTAPKRYCVRPNIGKIIPFRSTQVEICLQPFVYDQQEKNKHKFMVQSVLAPMDADLSDLNKLWKDLEPEQLMDAKLKCVFEMPTAEANAENTSGGGAVGGGTGAAGGGSAGANTSSASAEALESKPKLSSEDKFKPSNLLETSESLDLLSGEIKALRECNIELRRENLHLKDQITRFRSSPAVKQVNEPYAPVLAEKQIPVFYIAVAIAAAIVSLLLGKFFL

How the values were obtained:
Vap33-V5 (Drosophila) = target: T1, Vap33-V5 (Drosophila); assay: co-IP
[1] = target: RtGEF tagged with HA (Drosophila); assay: co-IP

Row | Molecule | binding (Vap33-V5 (Drosophila)) | binding [1]
1 | RtGEF tagged with HA (Drosophila) | binds | 
2 | B1 |  | binds
